# Laboratory results published in the supplement of paper PMC8728848.
# Some of the results follow.
# B1: CD72 ectodomain (Homo sapiens), P21854 (protein)
# chain: RYLQVSQQLQQTNRVLEVTNSSLRQQLRLKITQLGQSAEDLQGSRRELAQSQEALQVEQRAHQAAEGQLQACQADRQKTKETLQSEEQQRRALEQKLSNMENRLKPFFTCGSADTCCPSGWIMHQKSCFYISLTSKNWQESQKQCETLSSKLATFSEIYPQSHSYYFLNSLLPNGGSGNSYWTGLSSNKDWKLTDDTQRTRTYAQSSKCNKVHKTWSWWTLESESCRSSLPYICEMTAFRFPD
# Tests used:
# Experiment in all cases: glycan array binding signal (z-score within array); higher = stronger binding
# Conditions in all cases: glycan notation: IUPAC condensed, linker removed
# GalNAc(b1-6)GalNAc = molecular target: GalNAc(b1-6)GalNAc
# Method in brief: (§1)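 From the Consortium for Functional Glycomics database, 3228 arrays were curated, keeping only those whose protein sequence was available. Binding is given as a within-array Z-score averaged across arrays sharing a protein sequence and across linkers. Negative Z-scores can be read as non-binding.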
# Glc(a1-4)Glc = molecular target: Glc(a1-4)Glc
# Method in brief: as §1
# [1] = molecular target: Glc(a1-4)Glc(a1-4)Glc(a1-4)Glc
# Method in brief: as §1
# Glc(a1-6)Glc(a1-6)Glc = molecular target: Glc(a1-6)Glc(a1-6)Glc
# Method in brief: as §1
# [2] = molecular target: Glc(a1-6)Glc(a1-6)Glc(a1-6)Glc
# Method in brief: as §1
# Glc(b1-4)Glc = molecular target: Glc(b1-4)Glc
# Method in brief: as §1
# Glc(b1-6)Glc = molecular target: Glc(b1-6)Glc
# Method in brief: as §1
# GlcA(b1-3)Gal = molecular target: GlcA(b1-3)Gal
# Method in brief: as §1
# GlcA(b1-3)GlcNAc = molecular target: GlcA(b1-3)GlcNAc
# Method in brief: as §1
# GlcA(b1-6)Gal = molecular target: GlcA(b1-6)Gal
# Method in brief: as §1
# [3] = molecular target: GlcNAc(a1-3)Gal(b1-4)GlcNAc
# Method in brief: as §1
# [4] = molecular target: GlcNAc(a1-4)Gal(b1-3)GlcNAc
# Method in brief: as §1
# [5] = molecular target: GlcNAc(a1-4)Gal(b1-4)GalNAc
# Method in brief: as §1
# [6] = molecular target: GlcNAc(a1-4)Gal(b1-4)GlcNAc
# Method in brief: as §1
# [7] = molecular target: GlcNAc(a1-4)Gal(b1-4)GlcNAc(b1-3)Gal(b1-4)Glc
# Method in brief: as §1
# [8] = molecular target: GlcNAc(a1-4)Gal(b1-4)GlcNAc(b1-3)Gal(b1-4)GlcNAc
# Method in brief: as §1
# [9] = molecular target: GlcNAc(a1-4)Gal(b1-4)GlcNAc(b1-3)Gal(b1-4)GlcNAc(b1-3)Gal(b1-4)GlcNAc
# Method in brief: as §1
# [10] = molecular target: GlcNAc(a1-4)Gal(b1-4)GlcNAc(b1-3)Gal(b1-4)[Fuc(a1-3)]GlcNAc(b1-3)Gal(b1-4)[Fuc(a1-3)]GlcNAc
# Method in brief: as §1
# [11] = molecular target: GlcNAc(a1-6)Gal(b1-4)GlcNAc
# Method in brief: as §1
# [12] = molecular target: GlcNAc(b1-2)Gal(b1-3)GalNAc
# Method in brief: as §1
# [13] = molecular target: GlcNAc(b1-2)Man(a1-3)[GlcNAc(b1-2)Man(a1-6)]Man(b1-4)GlcNAc(b1-4)GlcNAc
# Method in brief: as §1
# [14] = molecular target: GlcNAc(b1-2)Man(a1-3)[GlcNAc(b1-2)Man(a1-6)]Man(b1-4)GlcNAc(b1-4)[Fuc(a1-6)]GlcNAc
# Method in brief: as §1
# [15] = molecular target: GlcNAc(b1-2)Man(a1-3)[GlcNAc(b1-4)][GlcNAc(b1-2)Man(a1-6)]Man(b1-4)GlcNAc(b1-4)GlcNAc
# Method in brief: as §1
# [16] = molecular target: GlcNAc(b1-2)[GlcNAc(b1-4)]Man(a1-3)[GlcNAc(b1-2)Man(a1-6)]Man(b1-4)GlcNAc(b1-4)GlcNAc
# Method in brief: as §1
# [17] = molecular target: GlcNAc(b1-2)[GlcNAc(b1-4)]Man(a1-3)[GlcNAc(b1-4)][GlcNAc(b1-2)Man(a1-6)]Man(b1-4)GlcNAc(b1-4)GlcNAc
# Method in brief: as §1
# [18] = molecular target: GlcNAc(b1-2)[GlcNAc(b1-4)]Man(a1-3)[GlcNAc(b1-4)][GlcNAc(b1-2)[GlcNAc(b1-6)]Man(a1-6)]Man(b1-4)GlcNAc(b1-4)GlcNAc
# Method in brief: as §1
# [19] = molecular target: GlcNAc(b1-2)[GlcNAc(b1-6)]Man(a1-6)[GlcNAc(b1-2)Man(a1-3)]Man(b1-4)GlcNAc(b1-4)GlcNAc
# Method in brief: as §1
# [20] = molecular target: GlcNAc(b1-2)[GlcNAc(b1-6)]Man(a1-6)[GlcNAc(b1-2)Man(a1-3)][GlcNAc(b1-4)]Man(b1-4)GlcNAc(b1-4)GlcNAc
# Method in brief: as §1
# GlcNAc(b1-3)Gal = molecular target: GlcNAc(b1-3)Gal
# Method in brief: as §1
# [21] = molecular target: GlcNAc(b1-3)Gal(b1-3)GalNAc
# Method in brief: as §1
# GlcNAc(b1-3)Gal(b1-4)Glc = molecular target: GlcNAc(b1-3)Gal(b1-4)Glc
# Method in brief: as §1
# [22] = molecular target: GlcNAc(b1-3)Gal(b1-4)GlcNAc
# Method in brief: as §1
# [23] = molecular target: GlcNAc(b1-3)Gal(b1-4)GlcNAc(b1-3)Gal(b1-4)GlcNAc
# Method in brief: as §1
# GlcNAc(b1-3)GalNAc = molecular target: GlcNAc(b1-3)GalNAc
# Method in brief: as §1
# GlcNAc(b1-3)Man = molecular target: GlcNAc(b1-3)Man
# Method in brief: as §1
# [24] = molecular target: GlcNAc(b1-3)[GlcNAc(b1-4)][GlcNAc(b1-6)]GlcNAc
# Method in brief: as §1
# [25] = molecular target: GlcNAc(b1-3)[GlcNAc(b1-6)]Gal(b1-4)GlcNAc
# Method in brief: as §1
binder,measurement,setting,value
B1,glycan array binding signal (z-score),GalNAc(b1-6)GalNAc,-0.435
same,glycan array binding signal (z-score),Glc(a1-4)Glc,-0.976
same,glycan array binding signal (z-score),[1],0.022
same,glycan array binding signal (z-score),Glc(a1-6)Glc(a1-6)Glc,-1.44
same,glycan array binding signal (z-score),[2],1.11
same,glycan array binding signal (z-score),Glc(b1-4)Glc,-0.195
same,glycan array binding signal (z-score),Glc(b1-6)Glc,-0.267
same,glycan array binding signal (z-score),GlcA(b1-3)Gal,2.21
same,glycan array binding signal (z-score),GlcA(b1-3)GlcNAc,-0.556
same,glycan array binding signal (z-score),GlcA(b1-6)Gal,-0.506
same,glycan array binding signal (z-score),[3],-0.623
same,glycan array binding signal (z-score),[4],-1.11
same,glycan array binding signal (z-score),[5],-0.109
same,glycan array binding signal (z-score),[6],-0.957
same,glycan array binding signal (z-score),[7],0.006
same,glycan array binding signal (z-score),[8],4.25
same,glycan array binding signal (z-score),[9],0.153
same,glycan array binding signal (z-score),[10],1.91
same,glycan array binding signal (z-score),[11],4.24
same,glycan array binding signal (z-score),[12],-1.19
same,glycan array binding signal (z-score),[13],-0.238
same,glycan array binding signal (z-score),[14],2.59
same,glycan array binding signal (z-score),[15],-0.418
same,glycan array binding signal (z-score),[16],0.649
same,glycan array binding signal (z-score),[17],-0.785
same,glycan array binding signal (z-score),[18],0.252
same,glycan array binding signal (z-score),[19],-0.215
same,glycan array binding signal (z-score),[20],0.485
same,glycan array binding signal (z-score),GlcNAc(b1-3)Gal,-0.65
same,glycan array binding signal (z-score),[21],1
same,glycan array binding signal (z-score),GlcNAc(b1-3)Gal(b1-4)Glc,0.153
same,glycan array binding signal (z-score),[22],-0.621
same,glycan array binding signal (z-score),[23],-0.117
same,glycan array binding signal (z-score),GlcNAc(b1-3)GalNAc,-0.636
same,glycan array binding signal (z-score),GlcNAc(b1-3)Man,-0.733
same,glycan array binding signal (z-score),[24],-0.114
same,glycan array binding signal (z-score),[25],0.334

# 2 records picked at random from the list so far, as already listed:
binder,measurement,setting,value
B1,glycan array binding signal (z-score),[23],-0.117
same,glycan array binding signal (z-score),Glc(a1-6)Glc(a1-6)Glc,-1.44
